Among all 52,000 sequences or so, about 210 (0.4%) were called active.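 The calls were made as follows: active = gene whose silencing raises cell survival under the drug, median off-target-corrected z-score across its silencing RNAs 2 or more; inactive = the rest.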 Some of the results follow.

A short description of this assay: Resistance to Poly (ADP-Ribose) Polymerase inhibitor: Gene Identification via Genome-wide siRNA Screen. Particulars: mouse BRCA2 R2336H ES cells, olaparib, CellTiter-Glo viability; active compounds read high. The essentials: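 Genome-wide siRNA screen (3 siRNAs/gene, 20 nM) in mouse ES cells carrying hypomorphic BRCA2 R2336H; olaparib 500 nM added 48 h post-transfection, CellTiter-Glo viability 72 h later. Normalized to plate-median negative control; MAD z-scores, gene median, seed-adjusted.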
Regarding GGACCACAAAUAGCAAAAATT against Zfp74, the z-score is inactive: 0.614.
For GCCAGAUGAUUGUGCAUCCTT against Nfatc3, the z-score was inactive: 0.0663.
Consider GGAAAUGGCAGGCAAGAUCTT against Gpr50, for which the z-score is inactive: -0.268.
The result for GGCUUUCAAUACGUGUGUCTT against Olfr15 reads inactive: -1.02; that for “GCCGGAUGAAAUAACCAAATT against 2310003C23Rik”, inactive: -1.45; that for GGAUGAAUUCAUUGAAGAATT against Btk, inactive: -0.287.
The value for GGAGUCAUUGACCAGAUAUTT against Psmd5 was inactive: -0.407.
As to “CCGAGAGUGCUGGAUGAUATT against 2600017J23Rik”, the z-score was inactive: -1.95.
With CGAUUUUCUAACCUCGAGUTT against Dlx2, the z-score is inactive: -0.0245.
For “GGAUGAUAUAGUAUCUACGTT against 2610022G08Rik”, the z-score is inactive: 0.628.
The value for “GGCUGGUGGAUAAUGAUUGTT against B230114J08Rik” was inactive: -1.24.
Take “CCAUCAGGGUUACAAGUACTT against 6030458C11Rik”: the z-score was inactive: -2.16.
With “GCAGAGACUACUUAGCAAGTT against 2310004I24Rik”, the z-score was inactive: 2.27.
The value for GGAUGAACGAGCUAUCGAGTT against Pdcl3 was inactive: 0.806; that for GGGUCCUAUUUAUUUAUGUTT against Cxcl1 was inactive: 0.472; that for GCAAGCUGUUUGUUCCAAUTT against Gtf3c4 was inactive: -1.49.
For the sequence “GCAGUAUAAGAAUUUCAUGTT against A930021O22”, the z-score is inactive: -0.351.
As to GGCAAUGCUAAAUAUUUGCTT against Ndor1, the z-score was inactive: 1.31.
The value for GGAAUUGAUUCUCUUCUCATT against Top2b was inactive: -0.598; that for CGUAACCAAACCCUGGUUCTT against Ccnl1 was inactive: -0.415; that for GGCGAUUGAGUUUGUUUUGTT against Rabggtb was inactive: 0.14.
As for GGUCUUCAGUCCUGUACCATT against LOC278676, the z-score was inactive: -1.08.
Take GGAGAUGAAGACAUGGGACTT against Sly: the z-score is inactive: -0.774.
Turning to GCCUGAGAAACAUUCGGCATT against H2-T24, the z-score was inactive: -0.178.
With “GGAAGAGGCGCACAUAACGTT against 5830436D01Rik”, the z-score is inactive: 0.479.
For the sequence GGAUUUGGUGAUCCACUGGTT against AV273951, the z-score was inactive: -2.09.
As for GGGAAAAGCACAGAGCUGATT against Tk1, the z-score is inactive: 0.173.
The value for GGCUGUUUUACAUCAUCCCTT against Ust was inactive: 1.9; that for GUGUACGUCUGUUAACACATT against Dad1 was inactive: -0.395.
For GGCUUUCUUUUGGAAGCUCTT against Sdfr2, the z-score was inactive: 0.162.
As to “GGACUGGUCCGAGGUAACUTT against 2700087I09Rik”, the z-score was inactive: -2.75.
As for GCUGGUGAAUGCGACCUUUTT against Tm4sf5, the z-score is inactive: -1.16.
As to GCCUAAAGCUUUUCUACAATT against Mlph, the z-score was inactive: -1.57.
The result for CAACCGUUGUGGCCAUGACTT against Olfr59 reads inactive: 0.752; that for GCUUGGUCGUAUAUUGUUGTT against Gm610, inactive: 0.493; that for GCAUAUGAUUGUCAUGAGUTT against Olfr319, inactive: -0.121.
Consider GGUGUUGCAUUCUUUCCUCTT against Dctn5, for which the z-score is inactive: -1.1.
The result for GGAAAAGAAGUUCAAUGGUTT against Riok3 reads inactive: -0.227; that for GCCAUUACUGAUCAAUCAGTT against BC003267, inactive: 0.369; that for GAGAGGGCAUAAUGGUUUUTT against Hist1h3c, inactive: 1.01.
In the case of GCCAUUUGAAGUGUUUAAATT against Kctd12, the z-score is inactive: -0.633.
The value for GGGCAGAUUCCAACUCCUUTT against Cd33 was inactive: -2.23; that for GGUCCCAGUGUCAUGUCUUTT against Cdipt was inactive: 0.00151; that for “GGAUCUAAGUUUGAUGUCGTT against 1300012D20Rik” was inactive: 0.262.
For the sequence AGGGUCAUUCUGCUAUUCCTT against Taar7d, the z-score is inactive: -0.83.
The value for GGCUUCAAGGUGAAACUCUTT against Cryl1 was inactive: 0.575.
Turning to CGUUUCUCAGCAAACUUACTT against Il17, the z-score is inactive: 0.0437.
The result for “GCAAGGACUCUCAUGGUUGTT against 2310008M20Rik” reads inactive: -0.775.
On to “GGUUUUGACCAUAAAAGAATT against 2410003C20Rik”, for which the z-score is inactive: -0.329.
Turning to GCUUAACUACCUUAAAGACTT against Scn3a, the z-score is inactive: 0.639.
In the case of GGCAUAAAAAGCAUAGUAGTT against Cstf2, the z-score is inactive: -1.23.
The result for “GGAUCUGAGUGCUCUACUGTT against 2410004N11Rik” reads inactive: -2.99.
As for GAAUGGUGAUAAGAAGCAUTT against Ndufb3, the z-score was inactive: -1.06.
Regarding GCUAUGCGUUCAGAAGUUGTT against Ap3d1, the z-score is inactive: -0.952.
Turning to “CCUGCUAGGACUAAGUUAGTT against 4930548H24Rik”, the z-score is inactive: -0.0644.
Consider GGUUUACAUCCAUUGGCAATT against Mesdc1, for which the z-score is inactive: 0.155.
CGCUCUUUCAGCACAAGAATT against Zfp422: the z-score was inactive: -1.03.
The result for “GGAACACAUUACCUCAAUUTT against 2610209A20Rik” reads inactive: -0.826; that for GCAAUUUCGGGUACUCAUATT against Tsta3, inactive: 1.11; that for GGUGUUCGUUUCAUCUACATT against Hnrph2, inactive: 0.917.
As for GCAUGAUCUCAGGUGUUUGTT against Timm9, the z-score was inactive: -0.323.
As to GGAUUUCAGAAAGUGGCCUTT against Acad8, the z-score is inactive: 1.9.
For the sequence GGUUCAGCUUUUCAUCAGUTT against Cops3, the z-score is inactive: -2.39.
Regarding GGCUGUUAUACACUAUCUGTT against Tirap, the z-score is inactive: 0.654.
The value for GCAUUACUUUAAGCCAUAUTT against Rbl1 was inactive: 1.84; that for CCGAGUCAUUCAGAGAACGTT against Plekha5 was inactive: -0.413.
On to “GCCGUUGGAUCCCAUAUCATT against 4930455F23Rik”, for which the z-score was inactive: -0.00279.
The result for GAACGUGAGGCACAAAUGGTT against Rhog reads inactive: 0.628; that for GUGAGACCUACCAGAUGAATT against V1rc25, inactive: 0.878.
As to CGGAAAUCGUUGCUAAUCUTT against Fcgrt, the z-score is inactive: 0.381.
Turning to GCAUGUUAAGCCUUGUAUATT against Tnpo1, the z-score was inactive: -0.439.
With GGCACACAAGAUUCUAGUGTT against Git2, the z-score was inactive: 1.36.
Turning to GGAUAGCAAAUUCAUCACATT against Ptprg, the z-score is inactive: 1.83.
Take CCUGAUUUAUGCAGAAUUATT against Ube2d3: the z-score is inactive: 1.81.
With GGCUGUCGAGGAUCUAAACTT against Cyp4a14, the z-score is inactive: 0.738.
On to GGAAAGGUGAACACAAAUGTT against Pet112l, for which the z-score is inactive: 1.94.
On to GGACCACAACACAAAUCUGTT against Tnfsf6, for which the z-score is inactive: 0.0621.
With GGAAGAUAUGAAGGGCUCATT against Mb, the z-score is inactive: -2.67.
Turning to GCUAGACUCCUACAGCAAUTT against Prss8, the z-score is inactive: 0.0263.
As for CGACAGCACUAUGCUGGGUTT against Psmb4, the z-score is inactive: -0.253.
Take GGCCAAUUAAUUCUUACAGTT against Srl: the z-score is inactive: 0.426.
Regarding GGAAUUCACUUCGAGGCAUTT against Npas2, the z-score is inactive: 0.0687.
With GGAUCCUCUUUUGUGGGACTT against Chst4, the z-score was inactive: -0.149.
On to GGAAAUGACUCAUUUACAGTT against Smc1l1, for which the z-score is inactive: -0.642.
On to “GGAAAGAGAUUCUCUUCUATT against D13Wsu123e”, for which the z-score was inactive: 0.35.
Consider GCUUCUACCUACGCAAUAATT against Nox4, for which the z-score was inactive: -2.05.
For the sequence “GCCAGUUAUCACUUAACCCTT against 2010110K16Rik”, the z-score is inactive: 0.362.
Take GGAUCAUUCCUUUGGUUAGTT against Fabp5: the z-score was inactive: -0.797.
For the sequence GGACAAGUGCCUCUCACCATT against Glis2, the z-score was inactive: -2.65.
For GCAGUGGUAAUUCGACAACTT against Rpl23, the z-score is inactive: -2.79.
As to GGAACUGACUCUAAACAAATT against Slc22a6, the z-score was inactive: -0.0782.
Take CCCUAAGAGAGCCUAAAACTT against Serpina3c: the z-score is inactive: -0.576.
As to GCAGUUGACCACAGAAAAUTT against BC061237, the z-score was inactive: 0.329.
Regarding “GGAGACAACCCAGAUGAACTT against 1700009P17Rik”, the z-score was inactive: 0.84.
As to CGAGAGUCUAACCAAGUACTT against Arhgdib, the z-score is inactive: 1.13.
Regarding “GGAAUCAACUGAUACUUAATT against D330038I09Rik”, the z-score was inactive: -0.091.
For GGGAUUCACUUCACUUAAGTT against Olfr294, the z-score is inactive: 0.209.
In the case of GGAUUUCAAAGGUGAUGAUTT against Xlr5, the z-score was inactive: 1.31.
Consider GGCGUGUUUUUGGAGUGCCTT against AI315068, for which the z-score was inactive: -0.172.
GGCAGACGAAUGGUGCAAATT against Dok5: the z-score was inactive: 0.532.
As for CCAAAUAAUUACUAGGCCUTT against Prdx2, the z-score is inactive: 1.44.
For CCAUGUGGCUGAGAGAUUGTT against Vgll2, the z-score is inactive: 0.362.
With GGUCUUACUCUUCAUAAUATT against Olfr1301, the z-score was inactive: 0.137.
In the case of GGAAGAUUCUUACCUCUGATT against Rngtt, the z-score is inactive: -2.38.
